Results are given in words; binding and its absence hold for the method and conditions named. Binding seen in cells or lysates may run through a third protein. Some binding calls cover weakened binding; strength is not graded here.
Molecular target: T1, CCCTC‐binding factor (CTCF) (human (endogenous in THP-1)) (UniProt P49711)
T1 sequence: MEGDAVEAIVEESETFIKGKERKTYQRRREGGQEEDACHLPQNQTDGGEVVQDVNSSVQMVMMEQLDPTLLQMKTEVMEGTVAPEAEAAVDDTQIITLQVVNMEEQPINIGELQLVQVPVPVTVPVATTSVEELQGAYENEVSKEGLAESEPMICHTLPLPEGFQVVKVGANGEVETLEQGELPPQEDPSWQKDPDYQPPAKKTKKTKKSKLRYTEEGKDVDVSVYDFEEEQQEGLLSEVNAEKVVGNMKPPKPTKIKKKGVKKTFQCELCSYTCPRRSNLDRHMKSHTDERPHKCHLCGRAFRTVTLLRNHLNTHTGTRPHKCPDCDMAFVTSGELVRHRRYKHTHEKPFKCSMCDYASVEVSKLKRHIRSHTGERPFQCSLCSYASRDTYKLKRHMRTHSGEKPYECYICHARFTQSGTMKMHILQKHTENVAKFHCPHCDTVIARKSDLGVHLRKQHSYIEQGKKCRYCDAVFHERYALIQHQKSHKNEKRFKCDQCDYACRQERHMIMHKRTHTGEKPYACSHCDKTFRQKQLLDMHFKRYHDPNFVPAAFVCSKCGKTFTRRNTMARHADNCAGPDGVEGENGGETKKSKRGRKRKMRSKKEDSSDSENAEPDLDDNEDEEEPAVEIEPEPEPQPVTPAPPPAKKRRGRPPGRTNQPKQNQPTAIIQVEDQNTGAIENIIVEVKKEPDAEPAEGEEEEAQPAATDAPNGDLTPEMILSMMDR
Test: co-IP; THP-1-derived TAMs lysed in IP lysis buffer with proteinase inhibitor; 1 ug anti-CTCF/anti-EP300, protein A Dynabeads at 4°C overnight, six washes; normal rabbit IgG as negative control; Western blot

Sequences of proteins named here, by UniProt entry; tags and fusion partners are left off. A change or cut given only in a name is not applied to a line headed by its entry.
UniProt Q09472: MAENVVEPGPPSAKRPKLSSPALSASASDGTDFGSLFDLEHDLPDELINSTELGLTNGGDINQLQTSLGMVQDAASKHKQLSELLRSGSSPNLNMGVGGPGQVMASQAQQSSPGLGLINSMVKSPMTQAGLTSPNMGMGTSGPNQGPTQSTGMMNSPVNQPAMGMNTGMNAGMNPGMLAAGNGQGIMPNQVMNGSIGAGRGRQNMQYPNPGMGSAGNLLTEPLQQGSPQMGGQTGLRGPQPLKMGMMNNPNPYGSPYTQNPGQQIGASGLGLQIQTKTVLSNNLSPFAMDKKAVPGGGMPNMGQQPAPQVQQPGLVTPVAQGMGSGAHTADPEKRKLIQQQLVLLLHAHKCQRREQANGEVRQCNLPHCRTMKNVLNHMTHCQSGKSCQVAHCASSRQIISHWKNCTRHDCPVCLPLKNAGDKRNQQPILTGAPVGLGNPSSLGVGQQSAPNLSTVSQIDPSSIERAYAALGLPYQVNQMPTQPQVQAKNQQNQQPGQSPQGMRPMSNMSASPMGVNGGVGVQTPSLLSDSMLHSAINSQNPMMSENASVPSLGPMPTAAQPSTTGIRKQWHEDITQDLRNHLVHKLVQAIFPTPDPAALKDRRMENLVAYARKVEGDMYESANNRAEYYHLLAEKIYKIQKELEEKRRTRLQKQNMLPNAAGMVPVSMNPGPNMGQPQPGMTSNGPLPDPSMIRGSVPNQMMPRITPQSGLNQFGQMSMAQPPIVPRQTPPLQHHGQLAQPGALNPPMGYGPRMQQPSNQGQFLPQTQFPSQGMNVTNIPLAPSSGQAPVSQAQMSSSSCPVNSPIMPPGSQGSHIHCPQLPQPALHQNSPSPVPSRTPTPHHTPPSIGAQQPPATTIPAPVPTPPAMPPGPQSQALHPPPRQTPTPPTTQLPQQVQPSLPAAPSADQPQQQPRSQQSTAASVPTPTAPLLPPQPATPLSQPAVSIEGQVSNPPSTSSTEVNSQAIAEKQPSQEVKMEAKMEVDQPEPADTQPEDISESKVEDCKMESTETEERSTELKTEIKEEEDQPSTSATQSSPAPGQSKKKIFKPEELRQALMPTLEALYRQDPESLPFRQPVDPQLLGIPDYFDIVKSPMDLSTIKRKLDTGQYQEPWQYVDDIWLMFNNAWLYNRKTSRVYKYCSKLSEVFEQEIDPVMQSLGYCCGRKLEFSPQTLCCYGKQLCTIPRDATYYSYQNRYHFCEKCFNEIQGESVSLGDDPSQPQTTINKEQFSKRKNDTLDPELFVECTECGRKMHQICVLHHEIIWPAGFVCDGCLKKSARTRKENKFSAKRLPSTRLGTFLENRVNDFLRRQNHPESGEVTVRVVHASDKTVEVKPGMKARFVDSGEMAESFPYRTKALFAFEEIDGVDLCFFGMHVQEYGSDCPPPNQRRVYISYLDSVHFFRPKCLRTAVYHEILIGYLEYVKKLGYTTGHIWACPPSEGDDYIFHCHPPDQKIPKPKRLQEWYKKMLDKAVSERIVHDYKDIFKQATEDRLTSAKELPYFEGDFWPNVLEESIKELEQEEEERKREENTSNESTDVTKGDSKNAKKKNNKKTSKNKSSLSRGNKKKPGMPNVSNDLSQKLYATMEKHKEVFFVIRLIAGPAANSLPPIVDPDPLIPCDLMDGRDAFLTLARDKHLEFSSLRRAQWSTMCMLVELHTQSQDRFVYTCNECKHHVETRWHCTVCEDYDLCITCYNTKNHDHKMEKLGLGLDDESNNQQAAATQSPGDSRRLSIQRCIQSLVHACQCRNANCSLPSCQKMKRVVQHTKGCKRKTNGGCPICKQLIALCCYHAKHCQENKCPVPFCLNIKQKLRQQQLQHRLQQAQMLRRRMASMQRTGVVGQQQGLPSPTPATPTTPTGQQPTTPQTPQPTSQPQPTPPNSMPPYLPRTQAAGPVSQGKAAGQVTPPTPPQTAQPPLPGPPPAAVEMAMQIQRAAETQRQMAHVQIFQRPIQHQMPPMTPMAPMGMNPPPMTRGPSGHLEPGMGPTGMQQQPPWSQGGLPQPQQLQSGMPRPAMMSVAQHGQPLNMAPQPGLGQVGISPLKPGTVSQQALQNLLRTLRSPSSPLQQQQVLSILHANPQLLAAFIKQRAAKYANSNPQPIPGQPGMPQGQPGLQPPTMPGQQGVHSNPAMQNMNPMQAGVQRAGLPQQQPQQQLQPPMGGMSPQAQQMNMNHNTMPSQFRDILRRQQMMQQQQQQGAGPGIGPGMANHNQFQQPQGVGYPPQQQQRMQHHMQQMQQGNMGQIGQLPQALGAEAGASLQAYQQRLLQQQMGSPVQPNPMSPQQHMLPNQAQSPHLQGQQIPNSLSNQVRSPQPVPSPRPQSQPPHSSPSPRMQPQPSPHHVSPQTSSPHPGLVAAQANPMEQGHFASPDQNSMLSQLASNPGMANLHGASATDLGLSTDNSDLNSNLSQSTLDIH

E1A binding protein p300 (EP300) (from UniProt Q09472 1-2414) (enzyme)
binding: binds
